{"source": "PubChem BioAssay AID504793 (Drosophila RNAi Screening Center, 2011)", "screen": "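Knock-downs allowing continued mitosis even though DNA is damaged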 (primary screen)", "cells": "Drosophila S2R+ cells", "knock-down reagent": "long dsRNA against Drosophila genes, about 0.25 µg dsRNA per well", "timing": "4 days of dsRNA, then 4 hours of drug before read-out", "treatment": "doxorubicin 0.5 µM for 4 hours to cause double-strand breaks, in cells also given a low, harmless dose of dsRNA against nbs to sensitise the assay", "detection": "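Per-well count of mitotic cells stained for phospho-histone H3 after doxorubicin exposure, used as mitotic index; counts are raw and not normalised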", "scale": "mitotic cells: higher = more cells in mitosis, weaker G2 arrest", "call rule": "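Genes are called active only when high mitotic counts were reproduced with independent dsRNAs and mitosis was checked for delay without damage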", "calls": "active = confirmed in follow-up tests; inactive = not confirmed", "note": "The screen tested about 23,000 reagents; shown is an unselected part of those that have a named target and a result. Over the whole deposit, 62 (0.27%) were called active. 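Calls come from follow-up tests whose scores are not deposited, so confirmed genes may have low counts here; counts are not normalised per plate.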 Raw values are not corrected between plates. Unmarked entries are inactive. Reagents against one gene are numbered here. Names joined by + are all predicted targets of the reagent. Reagent sequences are not shown."}
{"predicted target": "CG17618 (retired record) + CG45049", "reagent": 1, "mitotic cells, replicate 1": 2}
{"predicted target": "CG17618 (retired record) + CG45049", "reagent": 2, "mitotic cells, replicate 1": 2}
{"predicted target": "VhaPPA1-2 (Vacuolar H[+] ATPase PPA1 subunit 2)", "reagent": 1, "mitotic cells, replicate 1": 2}
{"predicted target": "VhaPPA1-2 (Vacuolar H[+] ATPase PPA1 subunit 2)", "reagent": 2, "mitotic cells, replicate 1": 4}

Next part (2 carried over from the part before).
{"predicted target": "VhaPPA1-2 (Vacuolar H[+] ATPase PPA1 subunit 2)", "reagent": 1, "mitotic cells, replicate 1": 2}
{"predicted target": "VhaPPA1-2 (Vacuolar H[+] ATPase PPA1 subunit 2)", "reagent": 2, "mitotic cells, replicate 1": 4}
{"predicted target": "nub (nubbin)", "reagent": 1, "mitotic cells, replicate 1": 8}
{"predicted target": "nub (nubbin)", "reagent": 2, "mitotic cells, replicate 1": 2}
{"predicted target": "nub (nubbin)", "reagent": 3, "mitotic cells, replicate 1": 15}
{"predicted target": "nub (nubbin)", "reagent": 4, "mitotic cells, replicate 1": 6}
{"predicted target": "nub (nubbin)", "reagent": 5, "mitotic cells, replicate 1": 5}
{"predicted target": "nub (nubbin)", "reagent": 6, "mitotic cells, replicate 1": 3}
{"predicted target": "CG34425", "reagent": 1, "mitotic cells, replicate 1": 7}
{"predicted target": "CG34425", "reagent": 2, "mitotic cells, replicate 1": 11}
{"predicted target": "Lsp1gamma (Larval serum protein 1 gamma)", "reagent": 1, "mitotic cells, replicate 1": 3}
{"predicted target": "Lsp1gamma (Larval serum protein 1 gamma)", "reagent": 2, "mitotic cells, replicate 1": 3}
